# PubChem BioAssay AID1508588, Peter MacCallum Cancer Centre, 2020
# Aim: 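Genome-wide search for knock-downs that heighten vemurafenib action in melanoma cells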 (primary screen)
# System: human WM266.4 melanoma cells (BRAF V600 mutant)
# Reagent: siRNA pool against human genes, 40 nM
# Duration: 96 h from transfection to read-out
# Challenge: vemurafenib 300 nM (about IC25), added 48 h after transfection, for 48 h; comparison arm got DMSO vehicle only
# Measured: 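Ratios to non-targeting siRNA for cell gain, counted as DAPI nuclei after minus before drug and averaged over two replicates, and for absorbance-read medium lactate per cell; both binned into fold-change classes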
# Reading the numbers: cell gain with vemurafenib: higher = more cell gain than with non-targeting siRNA; lactate per cell with vemurafenib: higher = more lactate made per cell
# Call rule: 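Enhancement is called by pairing each knock-down's vehicle-arm and drug-arm fold-change classes for viability or glycolysis; which class combinations qualify is not given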
# Calls: active = enhances vemurafenib effect; inactive = no enhancement seen
# The whole screen tested about 18,000 reagents; shown is an unselected part. In the full data, 790 (4.4%) got an active call. 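Calls rest on a combination of fold-change classes in drug and vehicle arms, not all shown here.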 Reagents against one gene are numbered here.
Gene,reagent,cell gain with vemurafenib,lactate per cell with vemurafenib,outcome
CEL,1,0.59,0.7,inactive
NUMB,1,0.14,2.51,inactive
ADGRG2,1,0.79,0.98,inactive
CDH11,1,0.5,1,inactive
APRG1,1,0.74,0.97,inactive
OCA2,1,0.88,0.78,inactive
COQ8A,1,0.22,0.31,inactive
MRPL24,1,0.49,0.84,inactive
OR52D1,1,0.83,0.32,inactive
MNDA,1,0.69,1.56,inactive
MAK16,1,0.38,0.82,inactive
CRB1,1,0.99,0.75,inactive
RMDN3,1,0.4,1.34,inactive
MTHFD1,1,0.43,1.08,inactive
ESCO2,1,0.71,0.38,inactive
FOXE3,1,1.01,0.88,inactive
ISG20L2,1,0.76,0.77,inactive
PPARA,1,0.24,0.74,inactive
SLC5A12,1,0.75,0.9,inactive
SLC17A1,1,0.01,1.5,inactive
ZNF18,1,0.69,0.95,inactive
SLC12A5,1,0.39,0.48,active
FOXD4L3,1,0.77,1.05,inactive
FOXD4L3,2,0.71,0.66,inactive
OR3A2,1,0.88,0.6,inactive
C4orf33,1,0.31,0.12,active
LIN9,1,0.49,1.49,inactive
PRR21,1,0.8,0.63,inactive
DEFB113,1,1.12,0.8,inactive
TTYH2,1,0.51,0.62,active
SLC29A3,1,0.25,0.78,inactive
SEMA4F,1,0,0,inactive
ATP5MC3,1,0.52,0.6,inactive
ZDHHC2,1,0.58,0.98,inactive
